Assay results published in PMC5341041.
No constants are given. Whether binding was seen depends on the method and setting. In cells and extracts the contact can be indirect. A yes stands for co-enrichment or nearness to the bait. Other partners may have been found.

Amino acid sequences for entries named in this document (tags omitted).
UniProt P53115: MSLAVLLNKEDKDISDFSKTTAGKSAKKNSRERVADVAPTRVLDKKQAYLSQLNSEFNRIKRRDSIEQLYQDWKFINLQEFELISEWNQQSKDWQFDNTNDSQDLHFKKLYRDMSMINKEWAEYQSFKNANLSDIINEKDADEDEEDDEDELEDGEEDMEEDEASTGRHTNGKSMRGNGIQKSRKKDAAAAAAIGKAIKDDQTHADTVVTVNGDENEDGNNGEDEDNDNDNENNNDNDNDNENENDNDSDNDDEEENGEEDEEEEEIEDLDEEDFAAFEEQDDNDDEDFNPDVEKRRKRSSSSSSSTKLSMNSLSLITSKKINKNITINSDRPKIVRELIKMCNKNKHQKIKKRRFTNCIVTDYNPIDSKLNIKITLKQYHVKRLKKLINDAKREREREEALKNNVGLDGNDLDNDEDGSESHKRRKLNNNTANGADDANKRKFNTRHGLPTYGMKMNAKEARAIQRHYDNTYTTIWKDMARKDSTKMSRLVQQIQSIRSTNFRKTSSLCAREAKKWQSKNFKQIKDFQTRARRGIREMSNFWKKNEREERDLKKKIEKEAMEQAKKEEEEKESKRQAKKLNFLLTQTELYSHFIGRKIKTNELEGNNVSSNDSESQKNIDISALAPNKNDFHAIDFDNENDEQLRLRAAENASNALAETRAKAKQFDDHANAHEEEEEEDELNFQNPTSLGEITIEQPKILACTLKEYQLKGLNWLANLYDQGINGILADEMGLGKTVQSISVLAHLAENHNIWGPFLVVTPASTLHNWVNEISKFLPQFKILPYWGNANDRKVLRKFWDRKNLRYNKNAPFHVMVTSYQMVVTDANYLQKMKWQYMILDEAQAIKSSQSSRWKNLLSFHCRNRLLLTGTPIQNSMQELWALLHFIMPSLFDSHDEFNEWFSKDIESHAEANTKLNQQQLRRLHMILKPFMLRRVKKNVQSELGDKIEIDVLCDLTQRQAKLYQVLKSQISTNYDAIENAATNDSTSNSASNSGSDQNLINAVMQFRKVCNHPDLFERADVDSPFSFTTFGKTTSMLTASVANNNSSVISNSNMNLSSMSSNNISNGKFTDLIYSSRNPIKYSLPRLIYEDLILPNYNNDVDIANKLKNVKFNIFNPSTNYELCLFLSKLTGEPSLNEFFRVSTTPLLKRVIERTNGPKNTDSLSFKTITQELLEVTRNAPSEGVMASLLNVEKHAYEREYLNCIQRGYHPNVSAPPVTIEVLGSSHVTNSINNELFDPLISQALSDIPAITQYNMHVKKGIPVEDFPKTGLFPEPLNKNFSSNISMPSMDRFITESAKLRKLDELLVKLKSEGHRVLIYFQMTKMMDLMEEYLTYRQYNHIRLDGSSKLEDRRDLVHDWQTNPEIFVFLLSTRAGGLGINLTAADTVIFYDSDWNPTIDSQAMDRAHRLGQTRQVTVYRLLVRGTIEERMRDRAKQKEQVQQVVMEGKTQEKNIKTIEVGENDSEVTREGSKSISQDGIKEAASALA
UniProt P32591: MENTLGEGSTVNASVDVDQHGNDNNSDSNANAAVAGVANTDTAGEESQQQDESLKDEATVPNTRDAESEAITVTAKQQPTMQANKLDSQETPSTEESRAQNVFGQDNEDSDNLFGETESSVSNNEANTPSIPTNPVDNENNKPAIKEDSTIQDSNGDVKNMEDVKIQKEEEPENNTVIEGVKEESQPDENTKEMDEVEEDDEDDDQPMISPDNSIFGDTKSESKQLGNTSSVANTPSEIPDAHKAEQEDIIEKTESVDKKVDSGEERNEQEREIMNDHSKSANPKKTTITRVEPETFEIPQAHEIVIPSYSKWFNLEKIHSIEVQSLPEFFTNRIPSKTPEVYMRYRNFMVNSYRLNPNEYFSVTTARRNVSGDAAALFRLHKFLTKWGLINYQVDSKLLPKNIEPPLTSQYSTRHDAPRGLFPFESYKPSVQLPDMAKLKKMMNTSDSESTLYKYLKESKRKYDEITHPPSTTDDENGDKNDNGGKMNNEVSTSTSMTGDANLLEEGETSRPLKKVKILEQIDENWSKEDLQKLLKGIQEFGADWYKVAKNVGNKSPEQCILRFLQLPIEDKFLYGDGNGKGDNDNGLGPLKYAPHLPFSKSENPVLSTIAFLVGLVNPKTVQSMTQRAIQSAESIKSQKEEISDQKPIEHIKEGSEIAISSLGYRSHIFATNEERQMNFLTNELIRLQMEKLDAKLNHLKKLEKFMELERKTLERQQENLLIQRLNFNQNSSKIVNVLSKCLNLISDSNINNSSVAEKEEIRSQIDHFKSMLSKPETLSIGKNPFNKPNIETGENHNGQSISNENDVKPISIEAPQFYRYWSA
UniProt P53628: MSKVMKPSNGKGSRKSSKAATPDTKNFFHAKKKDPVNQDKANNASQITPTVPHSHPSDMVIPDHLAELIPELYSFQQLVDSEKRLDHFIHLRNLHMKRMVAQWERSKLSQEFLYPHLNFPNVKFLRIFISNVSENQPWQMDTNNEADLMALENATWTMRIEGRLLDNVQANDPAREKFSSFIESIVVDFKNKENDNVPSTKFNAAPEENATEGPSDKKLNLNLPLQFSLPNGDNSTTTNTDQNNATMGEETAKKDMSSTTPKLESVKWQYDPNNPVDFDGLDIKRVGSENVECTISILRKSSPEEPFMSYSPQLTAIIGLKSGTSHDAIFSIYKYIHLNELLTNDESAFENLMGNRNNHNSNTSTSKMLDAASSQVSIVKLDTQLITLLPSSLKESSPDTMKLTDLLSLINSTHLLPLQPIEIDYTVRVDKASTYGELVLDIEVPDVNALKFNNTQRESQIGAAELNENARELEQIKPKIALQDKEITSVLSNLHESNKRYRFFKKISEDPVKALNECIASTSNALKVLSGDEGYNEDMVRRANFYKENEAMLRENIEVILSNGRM

What was measured:
Test in all cases: affinity purification with mass spectrometry; TAP purification of TAP-tagged INO80 subunits from wild-type S. cerevisiae grown in YPD; MudPIT, spectral counts, dNSAF
Ies5 (S. cerevisiae) = target: T1, Ies5 (S. cerevisiae) (UniProt P40060)
T1 sequence: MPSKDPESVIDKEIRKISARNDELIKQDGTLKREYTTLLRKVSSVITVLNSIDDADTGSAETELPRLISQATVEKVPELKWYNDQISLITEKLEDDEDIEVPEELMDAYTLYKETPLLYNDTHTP

Ies3 (S. cerevisiae) = target: T2, Ies3 (S. cerevisiae) (UniProt Q12345)
T2 sequence: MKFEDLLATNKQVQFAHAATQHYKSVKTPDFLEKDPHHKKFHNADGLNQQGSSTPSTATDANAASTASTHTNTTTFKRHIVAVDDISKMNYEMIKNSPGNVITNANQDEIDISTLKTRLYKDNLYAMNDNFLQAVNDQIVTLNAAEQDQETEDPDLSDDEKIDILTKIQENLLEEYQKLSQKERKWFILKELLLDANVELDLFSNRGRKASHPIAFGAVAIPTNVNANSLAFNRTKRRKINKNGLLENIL

Nhp10 (S. cerevisiae) = target: T3, Nhp10 (S. cerevisiae) (UniProt Q03435)
T3 sequence: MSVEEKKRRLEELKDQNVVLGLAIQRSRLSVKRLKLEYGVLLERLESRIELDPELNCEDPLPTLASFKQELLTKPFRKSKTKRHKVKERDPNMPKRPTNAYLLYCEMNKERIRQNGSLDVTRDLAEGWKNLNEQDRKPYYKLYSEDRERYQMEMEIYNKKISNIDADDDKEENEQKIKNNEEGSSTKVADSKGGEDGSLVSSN

Ies1 (S. cerevisiae) = target: T4, Ies1 (S. cerevisiae) (UniProt P43579)
T4 sequence: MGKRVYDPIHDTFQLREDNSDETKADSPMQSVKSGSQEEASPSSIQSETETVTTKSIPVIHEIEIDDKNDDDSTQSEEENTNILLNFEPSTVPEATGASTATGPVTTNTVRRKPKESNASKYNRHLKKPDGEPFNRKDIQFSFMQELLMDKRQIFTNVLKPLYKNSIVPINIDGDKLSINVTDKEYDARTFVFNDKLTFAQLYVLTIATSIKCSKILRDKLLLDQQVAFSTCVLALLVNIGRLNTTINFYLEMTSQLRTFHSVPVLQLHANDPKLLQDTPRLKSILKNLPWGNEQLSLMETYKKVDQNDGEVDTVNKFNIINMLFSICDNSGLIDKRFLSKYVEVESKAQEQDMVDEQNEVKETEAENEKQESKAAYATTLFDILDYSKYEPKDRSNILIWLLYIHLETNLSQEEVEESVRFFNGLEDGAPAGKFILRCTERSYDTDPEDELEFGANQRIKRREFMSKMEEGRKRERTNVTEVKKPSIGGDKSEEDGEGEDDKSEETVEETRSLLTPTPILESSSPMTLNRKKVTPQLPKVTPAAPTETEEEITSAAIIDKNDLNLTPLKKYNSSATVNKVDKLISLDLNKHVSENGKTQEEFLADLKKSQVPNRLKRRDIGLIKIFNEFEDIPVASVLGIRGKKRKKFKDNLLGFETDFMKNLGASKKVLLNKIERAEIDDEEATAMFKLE

Ino80 (S. cerevisiae) = Ino80 (S. cerevisiae) (UniProt P53115)
Ies6 (S. cerevisiae) = target: T5, Ies6 (S. cerevisiae) (UniProt P32617)
T5 sequence: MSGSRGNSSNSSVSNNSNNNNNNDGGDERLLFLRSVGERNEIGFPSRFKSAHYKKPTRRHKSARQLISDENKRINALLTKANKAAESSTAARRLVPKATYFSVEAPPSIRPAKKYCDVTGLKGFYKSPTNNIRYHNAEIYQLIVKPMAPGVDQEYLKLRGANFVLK

Ies2 (S. cerevisiae) = target: T6, Ies2 (S. cerevisiae) (UniProt P40154)
T6 sequence: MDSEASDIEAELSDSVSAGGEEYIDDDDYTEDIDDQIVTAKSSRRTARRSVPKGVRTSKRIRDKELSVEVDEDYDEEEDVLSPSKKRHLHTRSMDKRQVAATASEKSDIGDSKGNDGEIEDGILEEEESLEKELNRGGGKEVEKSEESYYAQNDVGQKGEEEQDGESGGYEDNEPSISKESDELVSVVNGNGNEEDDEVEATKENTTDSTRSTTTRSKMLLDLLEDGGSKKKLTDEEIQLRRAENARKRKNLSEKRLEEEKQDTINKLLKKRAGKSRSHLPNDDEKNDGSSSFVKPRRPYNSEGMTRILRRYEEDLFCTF

Measured: binding

Ino80 (from UniProt P53115 1-1489)
binds: Ies5 (S. cerevisiae) | Ies3 (S. cerevisiae) | Nhp10 (S. cerevisiae) | Ies1 (S. cerevisiae)

Swi3 (from UniProt P32591 1-825)
binds: Ino80 (S. cerevisiae)

Snf12 (from UniProt P53628 1-566)
binds: Ino80 (S. cerevisiae)

Act1 (from UniProt P60010 1-375)
not listed: Ino80 (S. cerevisiae)
binds: all other assays above

B1: Ies6 (protein, UniProt P32617 1-166)
chain: T5 sequence
not listed: Ino80 (S. cerevisiae) | Ies6 (S. cerevisiae)
binds: all other assays above

B2: Arp5 (protein, UniProt P53946 1-755)
chain: MSSRDASLTPLKAVVIDDPPLRQTPEPFDEQSAYNPQSPIAIDFGSSKLRAGFVNHATPTHIFPNALTKFRDRKLNKNFTFVGNDTLLDQAVRSQSRSPFDGPFVTNWNLTEEILDYTFHHLGVVPDNGIPNPILLTERLATVQSQRTNWYQILFETYNVPGVTFGIDSLFSFYNYNPSGNKTGLVISCGHEDTNVIPVVDGAGILTDAKRINWGGHQAVDYLNDLMALKYPYFPTKMSYLQYETMYKDYCYVSRNYDEDIEKILTLENLDTNDVVVEAPFTEVLQPQKTEEELRIQAEKRKETGKRLQEQARLKRMEKLVQKQEEFEYFSKVRDQLIDEPKKKVLSVLQNAGFDDERDFKKYLHSLEQSLKKAQMVEAEDDSHLDEMNEDKTAQKFDLLDIADEDLNEDQIKEKRKQRFLKASQDARQKAKEEKERVAKEEEEKKLKEQQWRETDLNGWIKDKRLKLNKLIKRRKEKLKLRDEMKDRKSQVSQNRMKNLASLAEDNVKQGAKRNRHQATIDNDPNDTFGANDEDWLIYTDITQNPEAFEEALEYEYKDIVELERLLLEHDPNFTEEDTLEAQYDWRNSILHLFLRGPRPHDSENIHEQHQMHLNVERIRVPEVIFQPTMGGQDQAGICELSETILLKKFGSQPGKLSQTSIDMVNNVLITGGNAKVPGLKERIVKEFTGFLPTGTNITVNMSSDPSLDAWKGMAALARNEEQYRKTVISKKEYEEYGPEYIKEHKLGNTKYFED
not listed: Ino80 (S. cerevisiae)
binds: all other assays above

B3: Ies4 (protein, UniProt Q08561 1-116)
chain: MSQESSVLSESQEQLANNPKIEDTSPPSANSRDNSKPVLPWDYKNKAIEIKSFSGYKVNFTGWIRRDVREERQRGSEFTASDVKGSDDKATRKKEPADEDPEVKQLEKEGEDGLDS
not listed: Ino80 (S. cerevisiae)
binds: all other assays above

B4: Arp8 (protein, UniProt Q12386 1-881)
chain: MSQEEAESSIIYEEPIDIPLEDDDDEDELEEENSVPLSSQADQENAENESDDSVDNVVGSETPRSVTGLSVDPRDVADEEDEDEEGEDEDEDEDDNDVDNEDENDNDNANENENELGSSRDKRAPPAVQTSKRYKKYPKLDPAKAPPGKKVPLHLLEKRRLGRIKAAEEFAKTLKKIGIEKVETTTLPATGLFQPLMLINQKNYSSDYLKKDDQIFALRDRKFLRNNNTSQISSTNTPDVIDLKSLPHSEASAAPLNDEIDLNDPTATIVIHPGSNSIKIGFPKDDHPVVVPNCVAVPKKWLDLENSEHVENVCLQREQSEEFNNIKSEMEKNFRERMRYYKRKVPGNAHEQVVSFNENSKPEIISEKNDPSPIEWIFDDSKLYYGSDALRCVDEKFVIRKPFRGGSFNVKSPYYKSLAELISDVTKLLEHALNSETLNVKPTKFNQYKVVLVIPDIFKKSHVETFIRVLLTELQFQAVAIIQESLATCYGAGISTSTCVVNIGAAETRIACVDEGTVLEHSAITLDYGGDDITRLFALFLLQSDFPLQDWKIDSKHGWLLAERLKKNFTTFQDADVAVQLYNFMNRSPNQPTEKYEFKLFDEVMLAPLALFFPQIFKLIRTSSHKNSSLEFQLPESRDLFTNELNDWNSLSQFESKEGNLYCDLNDDLKILNRILDAHNIIDQLQDKPENYGNTLKENFAPLEKAIVQSIANASITADVTRMNSFYSNILIVGGSSKIPALDFILTDRINIWRPSLLSSASFPQFYKKLTKEIKDLEGHYVNAPDKTEDENKQILQAQIKEKIVEELEEQHQNIEHQNGNEHIFPVSIIPPPRDMNPALIIWKGASVLAQIKLVEELFITNSDWDVHGSRILQYKCIFTY
not listed: Ino80 (S. cerevisiae) | Ies6 (S. cerevisiae)
binds: all other assays above

B5: Arp4 (protein, UniProt P80428 1-489)
chain: MSNAALQVYGGDEVSAVVIDPGSYTTNIGYSGSDFPQSILPSVYGKYTADEGNKKIFSEQSIGIPRKDYELKPIIENGLVIDWDTAQEQWQWALQNELYLNSNSGIPALLTEPVWNSTENRKKSLEVLLEGMQFEACYLAPTSTCVSFAAGRPNCLVVDIGHDTCSVSPIVDGMTLSKSTRRNFIAGKFINHLIKKALEPKEIIPLFAIKQRKPEFIKKTFDYEVDKSLYDYANNRGFFQECKETLCHICPTKTLEETKTELSSTAKRSIESPWNEEIVFDNETRYGFAEELFLPKEDDIPANWPRSNSGVVKTWRNDYVPLKRTKPSGVNKSDKKVTPTEEKEQEAVSKSTSPAANSADTPNETGKRPLEEEKPPKENNELIGLADLVYSSIMSSDVDLRATLAHNVVLTGGTSSIPGLSDRLMTELNKILPSLKFRILTTGHTIERQYQSWLGGSILTSLGTFHQLWVGKKEYEEVGVERLLNDRFR
not listed: Ino80 (S. cerevisiae)
binds: all other assays above
